# Hit rate of the full screen: of about 340,000 compounds, about 170 (0.05%) were called active. This list was built around the results that the source calls inconclusive (neither active nor inactive); the mix of calls is not that of the screen. The call rests on the fitted dose curve; in most records, active means well fitted inhibition curve with a large enough effect in the signal ratio, with a control signal flat (not every such curve was filed as active); inconclusive means small, poorly fitted or top-dose-only effect, or effect the other way, or a change in a side signal; inactive means flat fitted curve, though single readings scatter; the % refers to the signal ratio. Potencies of inconclusive entries are doubtful fits and often do not repeat.
# Assay: qHTS Assay to Find Inhibitors of Chronic Active B-Cell Receptor Signaling;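 on activity change, negative = inhibition: plate controls were basal doxycycline-induced cells for no effect and cells given 10 µM MG132 for full effect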
# Details: ABC-DLBCL IkBa-CBG/CBR reporter, luminescence ratio (green luciferase fused to IkBa over red control in TMD8 lymphoma cells), 4 h; activity change, negative = inhibition: at 46.1 µM (top of the series)
# Summary of the method: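 Cell line TMD8 (human ABC DLBCL), stably expressing tet-inducible CBG68-IkBa fusion and CBR; IMDM/0.5% FBS; cpd up to 46 uM; dox induction, 4 h, 37C/5% CO2; dual luminescence; green/red ratio; MG132 control.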
# Potency means the concentration at half of the fitted maximal effect.
SMILES,"activity change, negative = inhibition",Potency
CCn1c(CNC(=O)c2cccc(C)c2)nnc1SCC(=O)Nc1cccc(OC)c1,inactive,–
Cc1ccc(C)c(S(=O)(=O)N2CCCOC2CNC(=O)C(=O)NCc2ccccc2)c1 (stereo unspecified),inconclusive: -0.284%,–
COc1cccc2cc(C(=O)Nc3ccccc3C)/c(=N/O)oc12,inconclusive: 0.849%,–
CC(C)C[C@H](NC(=O)c1nc[nH]c1C(=O)NCc1ccccc1)C(=O)OC(C)(C)C,inconclusive: 13.9%,–
CCN(CCCNC(=O)C1CCN(S(=O)(=O)c2c(C)[nH]c(=O)[nH]c2=O)CC1)c1cccc(C)c1,inconclusive: 10.4%,–
Cc1ccc(N2CCN(/N=C/c3cccs3)CC2)cc1,inconclusive: 11.3%,–
Cn1c(SCC(=O)N(Cc2ccccc2)C(C)(C)C)nc2ccccc21,inconclusive: -3.01%,–
Cc1cccc([C@@H]2[C@@H]3C(=O)N(Cc4ccccc4)C(=O)[C@@H]3[C@]3(Cc4ccc(Cl)cc4)C(=O)N(c4ccccc4)C(=O)N23)c1,inconclusive: 17.1%,–
Cc1c(NS(=O)(=O)c2cccs2)cccc1-c1nc2cccnc2s1,inactive,–
COc1ccc(NC(=O)c2onc(C)c2Cl)cc1OC,inconclusive: 13.1%,–
COc1ccc(Cl)cc1NS(=O)(=O)c1cccc(C(=O)NCC2(N(C)C)CCCCC2)c1,inconclusive: -4.41%,–
O=C(c1ccccc1F)N1CCN=C1SCc1cccnc1,inconclusive: -1.45%,–
O=C(COC(=O)c1ccc(S(=O)(=O)Nc2ccccc2)cc1)NCC1CCCO1 (stereo unspecified),inconclusive: -0.0995%,–
O=C(CN1CCOCCOCCN(CC(=O)Nc2ccccc2)CCOCC1)Nc1ccccc1,inconclusive: -2.52%,–
COc1ccc(CCNC(=O)c2cc(-c3ccccc3O)n[nH]2)cc1OC,–,"inconclusive: 14.6 µM [falling, partial curve, poor fit]"
CCOC(=O)COc1ccccc1/C=C\[N+](=O)[O-],inconclusive: 26.6%,–
Cc1ccccc1COCCN1CCN(S(=O)(=O)c2ccccc2)CCC1=O,inconclusive: -4.75%,–
CC(=O)c1c(C)n(-c2ccccc2)c2ccc(OCC(N)=O)cc12,inconclusive: 3.7%,–
COc1cc(NC(=S)Nc2ccc(Br)cc2Cl)c(OC)cc1Cl,inactive,–
Cc1sc(NC(=O)c2ccccc2)c(C#N)c1-c1ccccc1,inconclusive: -6.54%,–
CCOC(=O)[C@@H]1[C@H]2COc3ccccc3[C@@H]2N2C(=O)N(c3ccc(Cl)cc3)C(=O)[C@@]12C,–,"inconclusive: 31.6 µM [rising, partial curve, poor fit]"

# At a glance, some entries already given:
SMILES,"activity change, negative = inhibition",Potency
CCn1c(CNC(=O)c2cccc(C)c2)nnc1SCC(=O)Nc1cccc(OC)c1,inactive,–
Cc1ccc(C)c(S(=O)(=O)N2CCCOC2CNC(=O)C(=O)NCc2ccccc2)c1 (stereo unspecified),inconclusive: -0.284%,–
COc1cccc2cc(C(=O)Nc3ccccc3C)/c(=N/O)oc12,inconclusive: 0.849%,–

# Following part.

SMILES,"activity change, negative = inhibition",Potency
C(=N\Nc1nc(-c2ccccn2)nc2ccccc12)/c1ccccc1,–,"inconclusive: 1 µM [falling, partial curve, poor fit]"
CCOC(=O)c1cccc(-n2c(C)cc(C=O)c2C)c1,inactive,–
CCOC(=O)c1ccc(NC(=O)Nc2cc(C)on2)cc1,inconclusive: -1.53%,–
CC(C)OCCCNC(=O)CN1C(=O)/C(=C/c2ccccc2)Sc2ccccc21,inactive,–
Clc1ccc(C2=NNC(=NCc3ccccc3)SC2)cc1,–,"inconclusive: 7.08 µM [falling, partial curve]"
CCCC(O)(c1ccc(OC)cc1)C(CN1CCOCC1)c1ccccc1 (stereo unspecified),inconclusive: -11.4%,–
Cc1cc(CN(C)C(=O)CC2C(=O)NCCN2Cc2ccc(-c3ccccc3)cc2)on1 (stereo unspecified),inconclusive: -7.33%,–
O=C1CC(N(O)c2ccccc2)C(=O)N1c1cc(Cl)cc(Cl)c1 (stereo unspecified),inconclusive: -18.3%,–
CCN(CC)C(=O)c1sc2c(c1C)c(=O)n(-c1ccccc1)c(=O)n2CC(=O)N(CC)c1cccc(C)c1,inactive,–
Oc1ccc(C2=NN(c3ccccc3)C(c3ccc(F)cc3)C2)cc1 (stereo unspecified),inconclusive: 8.07%,–
CC(=O)Nc1cccc(-c2csc(Nc3ccccn3)n2)c1,–,"inconclusive: 22.4 µM [falling, partial curve]"
Cc1ccccc1NS(=O)(=O)c1ccc(-c2ccc(=O)[nH]n2)o1,inconclusive: 0.419%,–
COc1cc(C(C)=O)ccc1COc1ccc(C(=O)OCC(=O)NC(C)(C)C)cc1OC,inconclusive: 1.09%,–
CC(=O)c1cc(C#N)c(SCc2ccccc2C#N)nc1C,inconclusive: 8.03%,–
Cc1cc(C(=O)NNS(=O)(=O)c2cc(C(=O)O)ccc2Cl)c(C)n1-c1ccccc1,inconclusive: 3.51%,–
CCN=C1SC(C(=O)Nc2ccccc2)CC(=O)N1CC (stereo unspecified),inconclusive: 25%,–
O=C(Nc1ccccc1)OCCCc1ccccc1,–,"inconclusive: 17.8 µM [falling, partial curve, poor fit]"
O=C(CC(c1ccccc1)c1ccccc1)OCn1nnc2ccccc2c1=O,inconclusive: 19.8%,–
CN(C)c1ccc(/C=C2\CCCc3c2nc2ccccc2c3C(=O)O)cc1,inactive,–
COc1ccc(C(=O)NCC(=O)N/N=C(\C)Cc2ccccc2)cc1,inconclusive: -9.01%,–

# — PubChem BioAssay AID493014 (National Center for Advancing Translational Sciences (NCATS), 2011)
